Results as given in PMC2605266.

Columns and labels:
[1] = target: T1, GST fused to the cytosolic domain of VAMP4 (human); experiment: pull-down; 5 ug GST fusion protein immobilised on glutathione Sepharose, 5 ug His-tagged Munc18c in 500 ul, overnight at 4 C; binding buffer 150 mM potassium acetate, 1 mM MgCl2, 0.05% Tween 20, 20 mM HEPES pH 7.4; bound Munc18c detected by immunoblot; both purified
T1 sequence (O75379 whole entry, looked up): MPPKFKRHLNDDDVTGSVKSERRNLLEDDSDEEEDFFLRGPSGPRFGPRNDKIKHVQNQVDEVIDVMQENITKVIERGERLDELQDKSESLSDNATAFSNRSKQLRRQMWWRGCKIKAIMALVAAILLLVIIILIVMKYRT

[2] = target: T2, GST fused to the cytosolic domain of VAMP8 (human); experiment: as above
T2 sequence (Q9BV40 whole entry, looked up): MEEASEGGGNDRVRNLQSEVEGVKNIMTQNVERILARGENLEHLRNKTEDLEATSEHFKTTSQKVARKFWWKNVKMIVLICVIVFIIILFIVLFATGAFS

B1: Munc18c, N-terminal His6-fusion protein (protein, UniProt Q60770 1-592)
chain: MAPPVSERGLKSVVWRKIKTAVFDDCRKEGEWKIMLLDEFTTKLLSSCCKMTDLLEEGITVIENIYKNREPVRQMKALYFISPTPKSVDCFLRDFGSKSEKKYKAAYIYFTDFCPDSLFNKIKASCSKSIRRCKEINISFIPQESQVYTLDVPDAFYYCYSPDPSNASRKEVVMEAMAEQIVTVCATLDENPGVRYKSKPLDNASKLAQLVEKKLEDYYKIDEKGLIKGKTQSQLLIIDRGFDPVSTVLHELTFQAMAYDLLPIENDTYKYKTDGKEKEAVLEEDDDLWVRVRHRHIAVVLEEIPKLMKEISSTKKATEGKTSLSALTQLMKKMPHFRKQISKQVVHLNLAEDCMNKFKLNIEKLCKTEQDLALGTDAEGQRVKDSMLVLLPVLLNKNHDNCDKIRAVLLYIFGINGTTEENLDRLIHNVKIEDDSDMIRNWSHLGVPIVPPSQQAKPLRKDRSAEETFQLSRWTPFIKDIMEDAIDNRLDSKEWPYCSRCPAVWNGSGAVSARQKPRTNYLELDRKNGSRLIIFVIGGITYSEMRCAYEVSQAHKSCEVIIGSTHILTPRKLLDDIKMLNKSKDKVSFKDE
- binding [1]: no binding (tested: less than 14% of that observed for VAMP2)
- binding [2]: no binding (tested: less than 14% of that observed for VAMP2)

These are yes or no findings as the source states them, for the method shown. Tags and fused reporters may be left off the sequences shown.
